Assay results: paper PMC7313111
These are yes or no findings as the source states them, for the method shown. For some of these results: Binding seen in cells or lysates may run through a third protein.

Chains of the proteins cited; added tags and fusions are not shown.
UniProt P38532: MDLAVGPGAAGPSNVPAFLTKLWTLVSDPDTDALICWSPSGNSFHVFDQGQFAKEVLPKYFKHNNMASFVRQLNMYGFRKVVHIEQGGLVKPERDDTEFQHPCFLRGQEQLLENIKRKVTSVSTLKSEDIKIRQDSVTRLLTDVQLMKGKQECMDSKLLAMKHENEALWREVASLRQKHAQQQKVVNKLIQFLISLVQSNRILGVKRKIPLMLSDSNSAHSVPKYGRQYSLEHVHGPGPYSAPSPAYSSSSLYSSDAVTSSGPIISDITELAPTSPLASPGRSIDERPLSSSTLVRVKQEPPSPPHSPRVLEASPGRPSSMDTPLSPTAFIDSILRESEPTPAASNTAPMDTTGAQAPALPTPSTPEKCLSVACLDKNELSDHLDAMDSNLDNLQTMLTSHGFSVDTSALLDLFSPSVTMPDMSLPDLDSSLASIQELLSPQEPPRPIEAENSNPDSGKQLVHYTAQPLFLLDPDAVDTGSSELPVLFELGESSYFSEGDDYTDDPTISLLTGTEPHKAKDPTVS
UniProt Q61696: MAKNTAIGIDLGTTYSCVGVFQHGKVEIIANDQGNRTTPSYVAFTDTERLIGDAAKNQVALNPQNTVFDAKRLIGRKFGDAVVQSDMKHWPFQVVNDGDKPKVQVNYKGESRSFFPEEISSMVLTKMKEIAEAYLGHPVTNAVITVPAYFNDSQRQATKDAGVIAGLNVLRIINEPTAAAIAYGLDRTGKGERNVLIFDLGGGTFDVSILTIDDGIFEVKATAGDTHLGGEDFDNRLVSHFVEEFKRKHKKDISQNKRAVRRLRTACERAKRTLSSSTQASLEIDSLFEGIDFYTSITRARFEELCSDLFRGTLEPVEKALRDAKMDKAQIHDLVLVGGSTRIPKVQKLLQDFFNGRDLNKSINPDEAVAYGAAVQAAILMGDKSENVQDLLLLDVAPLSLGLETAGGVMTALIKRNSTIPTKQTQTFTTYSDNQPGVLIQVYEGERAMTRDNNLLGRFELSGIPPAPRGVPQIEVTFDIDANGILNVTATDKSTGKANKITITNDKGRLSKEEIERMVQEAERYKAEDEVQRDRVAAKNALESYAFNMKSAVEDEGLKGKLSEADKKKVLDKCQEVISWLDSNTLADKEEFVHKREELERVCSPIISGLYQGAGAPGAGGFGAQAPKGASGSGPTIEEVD

T1: pBIND-ALDH2 (UniProt P47738)
T1 sequence: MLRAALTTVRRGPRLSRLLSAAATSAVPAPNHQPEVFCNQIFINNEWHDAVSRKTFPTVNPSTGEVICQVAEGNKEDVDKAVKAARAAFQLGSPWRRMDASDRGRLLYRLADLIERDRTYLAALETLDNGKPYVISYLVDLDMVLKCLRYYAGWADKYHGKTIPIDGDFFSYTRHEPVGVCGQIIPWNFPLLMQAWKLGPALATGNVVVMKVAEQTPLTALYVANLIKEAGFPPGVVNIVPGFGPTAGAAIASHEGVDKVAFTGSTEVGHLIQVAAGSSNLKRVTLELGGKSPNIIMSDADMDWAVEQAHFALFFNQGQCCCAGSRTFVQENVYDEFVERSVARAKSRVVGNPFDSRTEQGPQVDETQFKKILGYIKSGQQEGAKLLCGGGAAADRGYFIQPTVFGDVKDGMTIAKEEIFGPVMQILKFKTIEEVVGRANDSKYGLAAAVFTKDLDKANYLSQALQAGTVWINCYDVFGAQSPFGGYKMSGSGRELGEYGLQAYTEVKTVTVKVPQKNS

T2: ALDH2 (mouse (endogenous in mouse heart and neonatal mouse cardiomyocytes)) (UniProt P47738)
T2 sequence: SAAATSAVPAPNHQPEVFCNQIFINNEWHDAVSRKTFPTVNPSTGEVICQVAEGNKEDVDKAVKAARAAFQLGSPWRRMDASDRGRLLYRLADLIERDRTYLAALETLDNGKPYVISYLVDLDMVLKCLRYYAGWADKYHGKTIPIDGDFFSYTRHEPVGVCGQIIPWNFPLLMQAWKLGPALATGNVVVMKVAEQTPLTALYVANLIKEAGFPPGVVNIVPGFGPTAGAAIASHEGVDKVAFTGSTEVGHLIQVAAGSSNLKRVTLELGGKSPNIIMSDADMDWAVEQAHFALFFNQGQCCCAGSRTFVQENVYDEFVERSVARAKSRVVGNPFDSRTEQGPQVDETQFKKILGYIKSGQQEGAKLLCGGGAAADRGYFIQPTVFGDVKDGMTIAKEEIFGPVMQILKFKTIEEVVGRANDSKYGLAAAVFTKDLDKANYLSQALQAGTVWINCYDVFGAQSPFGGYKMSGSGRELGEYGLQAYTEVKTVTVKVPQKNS


Experiments:
pBIND-ALDH2 = target: T1, pBIND-ALDH2; assay: two-hybrid; mammalian two-hybrid luciferase reporter in cardiomyocytes: cotransfection of pBIND-ALDH2 with pACT-HSF1 or pACT-HSPA1A and pG5luc; ratio of luciferase RLU to Renilla luciferase RLU
[1] = target: T2, ALDH2 (mouse (endogenous in mouse heart and neonatal mouse cardiomyocytes)); assay: co-IP; lysates of heart of 4-week TAC mice and of 48-hour stretched cardiomyocytes; lysis buffer 150 mmol/l NaCl, 1 mmol/l EDTA, 50 mmol/l Tris-HCl, 5% glycerol, 0.1% NP-40, 4°C; antibody then protein A/G-agarose beads; Western blot; IgG lane as negative control; both orientations (anti-ALDH2 and anti-HSF1)
[2] = target: HSF1 (mouse (endogenous in mouse heart and neonatal mouse cardiomyocytes)) (UniProt P38532); assay: as above

Row | Molecule | binding (pBIND-ALDH2) | further results
1 | pACT-HSPA1A (from UniProt Q61696 1-641) | no binding | 
2 | HSF1 (from UniProt P38532 1-525) |  | binding [1]: no binding
3 | pACT-HSF1 (from UniProt P38532 1-525) | no binding | 
4 | ALDH2 (protein, UniProt P47738 20-519) SAAATSAVPAPNHQPEVFCNQIFINNEWHDAVSRKTFPTVNPSTGEVICQVAEGNKEDVDKAVKAARAAFQLGSPWRRMDASDRGRLLYRLADLIERDRTYLAALETLDNGKPYVISYLVDLDMVLKCLRYYAGWADKYHGKTIPIDGDFFSYTRHEPVGVCGQIIPWNFPLLMQAWKLGPALATGNVVVMKVAEQTPLTALYVANLIKEAGFPPGVVNIVPGFGPTAGAAIASHEGVDKVAFTGSTEVGHLIQVAAGSSNLKRVTLELGGKSPNIIMSDADMDWAVEQAHFALFFNQGQCCCAGSRTFVQENVYDEFVERSVARAKSRVVGNPFDSRTEQGPQVDETQFKKILGYIKSGQQEGAKLLCGGGAAADRGYFIQPTVFGDVKDGMTIAKEEIFGPVMQILKFKTIEEVVGRANDSKYGLAAAVFTKDLDKANYLSQALQAGTVWINCYDVFGAQSPFGGYKMSGSGRELGEYGLQAYTEVKTVTVKVPQKNS |  | binding [2]: no binding
